Reference: US20230243810A1
These are yes or no findings as the source states them, for the method shown. Binding seen in cells or lysates may run through a third protein. Some binding calls cover weakened binding; strength is not graded here.

Experiments:
Test in all cases: co-immunoprecipitation with anti-FGFR3 (C-15) from stable U2OS cell lysates, plus immuno-colocalization
[1] = target: HYP FGFR3 (human FGFR3 N540K) (human) (UniProt P22607)
[2] = target: ACH FGFR3 (human FGFR3 G380R) (human) (UniProt P22607)
[3] = target: TDII FGFR3 (human FGFR3 K650E) (human) (UniProt P22607)

Measured: binding

SH2(SH2B)-RrGFP fusion protein (from UniProt Q9NRF2 511-632)
binds: [1] | [2] | [3]
